Results deposited as PubChem BioAssay AID1671195 (Yale University, 2021)

- Screen: 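Regulators of LDL receptor activity judged by labelled LDL uptake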 (primary screen)
- Cells: human Huh7 hepatoma cells
- Reagents: siRNA pool against human genes, 18 nM
- Time to read-out: about 2 to 2.5 days of knockdown, then 8 h LDL uptake
- Challenge: DiI-labelled LDL at 30 µg/ml for 8 h, in lipoprotein-deficient serum medium
- Measured: 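Per-cell DiI-LDL intensity by automated imaging; well means scaled to the plate median and given as a robust z-score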
- Scale: robust z-score: higher = more LDL uptake after knockdown
- Rule for the call: 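Active when two or more replicates show a robust z-score above 2 or below -2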
The whole screen tested about 22,000 reagents; this is a random part of them. About 1,510 of them (6.9%) count as active. 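Active includes knockdowns raising or lowering LDL uptake; positive z-scores mean more uptake, negative mean less.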 The numbers tell different reagents against one gene apart.

no.	gene	reagent	robust z-score, replicate 1	robust z-score, replicate 2	robust z-score, replicate 3	call
1	HSD17B7 (hydroxysteroid 17-beta dehydrogenase 7)	1	-1.3	-1.03	-1.13	inactive
2	PTCHD4 (patched domain containing 4)	1	0.759	0.607	1.01	inactive
3	PTCHD4 (patched domain containing 4)	2	-1.19	-1.22	-1.16	inactive
4	NAP1L1 (nucleosome assembly protein 1 like 1)	1	-0.171	0.249	-0.269	inactive
5	VAT1 (vesicle amine transport 1)	1	-1.46	-1.47	-1.66	inactive
6	LOC441012 (retired record)	1	-0.137	0.15	-0.0595	inactive
7	LOC401057 (retired record)	1	-0.314	-0.373	0.118	inactive
8	PFKFB2 (6-phosphofructo-2-kinase/fructose-2,6-biphosphatase 2)	1	-0.0545	-0.0254	-0.397	inactive
9	ZNF479 (zinc finger protein 479)	1	1.01	0.657	1.09	inactive
10	OR10K1 (olfactory receptor family 10 subfamily K member 1)	1	-0.442	0.555	0.324	inactive
11	DSC1 (desmocollin 1)	1	0.69	0.647	1.47	inactive
12	HILPDA (hypoxia inducible lipid droplet associated)	1	0.0291	-0.669	0.825	inactive
13	FAM184B (family with sequence similarity 184 member B)	1	-0.462	1.78	2.18	inactive
14	MYF6 (myogenic factor 6)	1	0.0155	0.186	0.654	inactive
15	LOC440676 (retired record)	1	-0.743	-0.673	-0.394	inactive
16	RPS15AP17 (ribosomal protein S15a pseudogene 17)	1	-0.0748	0.172	-0.0855	inactive
17	PRXL2B (peroxiredoxin like 2B)	1	1.16	0.121	0.853	inactive
18	LINC02906 (long independently transcribed non-coding RNA 2906)	1	-0.226	-0.0307	-0.487	inactive
19	AOPEP (aminopeptidase O (putative))	1	-0.472	-0.136	-0.451	inactive
20	LOC391105 (retired record)	1	-0.368	-0.342	-0.825	inactive
21	BICD1 (BICD cargo adaptor 1)	1	-0.573	-1.16	1.22	inactive
22	LRIG1 (leucine rich repeats and immunoglobulin like domains 1)	1	1.57	1.26	1.37	inactive
23	ZC3H7B (zinc finger CCCH-type containing 7B)	1	0.656	-0.573	1.9	inactive
24	KRTAP12-2 (keratin associated protein 12-2)	1	0.367	0.909	0.668	inactive
25	NHERF2 (NHERF family PDZ scaffold protein 2)	1	-0.267	-1.23	-0.928	inactive
26	WDR97 (WD repeat domain 97)	1	0.0362	0.0526	0.633	inactive
27	CNTN1 (contactin 1)	1	1.55	0.384	0.391	inactive
28	UMPS (uridine monophosphate synthetase)	1	-0.654	-1.34	-0.49	inactive

2 entries from above, set out differently.
{"gene": "RPS15AP17 (ribosomal protein S15a pseudogene 17)", "reagent": 1, "robust z-score, replicate 1": -0.0748, "robust z-score, replicate 2": 0.172, "robust z-score, replicate 3": -0.0855, "call": "inactive"}
{"gene": "PRXL2B (peroxiredoxin like 2B)", "reagent": 1, "robust z-score, replicate 1": 1.16, "robust z-score, replicate 2": 0.121, "robust z-score, replicate 3": 0.853, "call": "inactive"}
